Measured values published in patent US20060094101A1.
Results are given in words; binding and its absence hold for the method and conditions named. Binding seen in cells or lysates may run through a third protein. Some binding calls cover weakened binding; strength is not graded here. Where a sequence is shown, tags or fusion partners need not be part of it.

Protein sequences, listed by entry. Tags and fused reporters are not part of them.
UniProt P49137: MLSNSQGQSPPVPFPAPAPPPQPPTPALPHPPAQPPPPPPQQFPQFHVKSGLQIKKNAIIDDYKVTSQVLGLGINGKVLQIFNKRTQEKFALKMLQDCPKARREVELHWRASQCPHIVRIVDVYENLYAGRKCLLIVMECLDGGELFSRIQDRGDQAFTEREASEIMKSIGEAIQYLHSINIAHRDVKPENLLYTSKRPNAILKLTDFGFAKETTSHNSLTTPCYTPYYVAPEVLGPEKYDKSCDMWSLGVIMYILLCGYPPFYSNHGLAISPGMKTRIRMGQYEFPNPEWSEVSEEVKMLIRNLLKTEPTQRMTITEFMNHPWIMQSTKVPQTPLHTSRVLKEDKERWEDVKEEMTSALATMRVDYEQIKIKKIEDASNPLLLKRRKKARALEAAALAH

Assays:
[1] = target: MYC-tagged MK2 (UniProt P49137); assay: co-immunoprecipitation from 293T cells, IP anti-V5, blot anti-Myc (FIG. 10A)
[2] = target: MYC-tagged MK2 (UniProt P49137); assay: co-immunoprecipitation from 293T cells, unstimulated or stimulated with anisomycin, IP anti-V5, blot anti-MYC

B1: V5-tagged Shc (V5-p66 Shc A) (protein, not shown: small tags and cut ends)
chain: MDLLPPKPKYNPLRNESLSSLEEGASGSTPPEELPSPSASSLGPILPPLPGDDSPLPCVPSFPRMSNLKLANPAGGPWGLKGSQERLLKMGKGVQGQPFGLRPLAPPPDMNKLSGGGGRRTRVEGGQLGGEEWTRHGSFVNKPTRGWLHPNDKVMGPGVSYLVRYMGCVEVLQSMRALDFNTRTQVTREAISLVCEAVPGAKGATRRRKPCSRPLSSILGRSNLKFAGMPITLTVSTSSLNLMAADCKQIIANHHMQSISFASGGDPDTAEYVAYVAKDPVNQRACHILECPEGLAQDVISTIGQAFELRFKQYLRNPPKLVTPHDRMAGFDGSAWDEEEEEPPDHQYYNDFPGKEPPLGGVVDMRLREGAARPTLPSAQMSSHLGATLPIGQHAAGDHEVRKQMLPPPPCPGRELFDDPSYVNIQNLDKARQAGGGAGPPNPSLNGSAPRDLFDMKPFEDALRVPPPPQSMSMAEQLQGEPWFHGKLSRREAEALLQLNGDFLVRESTTTPGQYVLTGLQSGQPKHLLLVDPEGVVRTKDHRFESVSHLISYHMDNHLPIISAGSELCLQQPVDRKV
binding [1]: binds | binding [2]: binds
